Measurements published in patent US20240059769A1.
Results are given in words; binding and its absence hold for the method and conditions named.

Assays:
IL-17 [1] = assay: specificity ELISA, 250 ng ligand coated
IL-17 [2] = assay: ELISA, 250 ng coated ligand per well, 100 nM IgG, anti-human Fc-HRP

B1: BDG33.023 (antibody, V domains shown)
VH: QMQLVESGGGVVQPGRSLRLSCAASGFAFRTYGMHWVRQAPGKGLEWVAVIWYDGSNTHYADSVKGRFTITRDNSKNTLNLQMNSLRAEDTAVYYCARAPQWYLSAEAFDLWGQGTMVTVSS
VL: SYVLTQPPSVSVAPGQTARITCGGNLIGSKLVHWYQQKPGQAPVLVVYDDSDRPSRIPERFSGSNSGNTATLTISRVEAGDEADYYCQVWDHSSDHVVFGGGTKLTVL
IL-17 [1]
  binding: no binding (tested: 100 nM IgG)
IL-17 [2]
  binding: no binding (tested: 100 nM)
